Assay results taken from EP4692122A1, “HUMANIZED ANTIBODIES TARGETING EPHA10” (priority 2023, dated 2024).
These are yes or no findings as the source states them, for the method shown. Some entries that bind do so weakly or less than the wild type.

Chains of the proteins cited; added tags and fusions are not shown. Residues count along the entry.
UniProt Q5JZY3, residues 34-565: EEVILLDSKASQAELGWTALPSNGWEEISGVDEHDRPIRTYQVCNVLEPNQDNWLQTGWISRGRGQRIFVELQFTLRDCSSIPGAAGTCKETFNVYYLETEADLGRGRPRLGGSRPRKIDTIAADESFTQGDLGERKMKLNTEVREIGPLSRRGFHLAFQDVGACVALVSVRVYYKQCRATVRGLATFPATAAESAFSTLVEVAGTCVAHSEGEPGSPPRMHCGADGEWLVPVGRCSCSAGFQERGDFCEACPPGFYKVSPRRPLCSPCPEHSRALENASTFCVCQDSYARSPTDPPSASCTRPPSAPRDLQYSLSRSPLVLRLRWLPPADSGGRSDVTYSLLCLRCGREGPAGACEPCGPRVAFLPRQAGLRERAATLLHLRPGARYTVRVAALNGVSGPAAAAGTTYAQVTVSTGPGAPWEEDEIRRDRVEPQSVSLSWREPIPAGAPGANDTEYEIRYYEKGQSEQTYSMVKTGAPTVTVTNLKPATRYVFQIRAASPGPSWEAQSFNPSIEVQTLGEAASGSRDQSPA

These binders were tested against EphA10 (ELISA antigen, construct not stated) (UniProt Q5JZY3) (assay: ELISA).

Row | Binder | binding
1 | antibody 1-1-A (antibody, V domains shown) VH: QVTLKESGPTLVKPTQTLTLTCTFSGFSLSTSGMGVGWIRQPPGKALEWLAHIWWDDVKRYNPALKSRLTITKDTSKNQVVLTMTNMDPVDTATYYCARTSFPAGVDYWGQGTLVTVSS VL: DVVMTQSPLSLPVTLGQPASISCRSSQSLQNSNGNTALNWFQQRPGQSPRRLIYRVSNRFSGVPDRFSGSGSGTDFTLKISRVEAEDVGVYYCLQVTHVPFTFGQGTKLEIKR | binds
2 | antibody 1-2-A (antibody, V domains shown) VH: QVTLKESGPTLVKPTQTLTLTCTFSGFSLSTSGMGVGWIRQPPGKALEWLAHIWWDDVKRYNPALKSRLTITKDTSKNQVVLTMTNMDPVDTATYYCARTSFPAGVDYWGQGTLVTVSS VL: DIVMTQTPLSLSVTPGQPASISCRSSQSLQNSNGNTALNWYLQKPGQSPQLLIYRVSNRFSGVPDRFSGSGSGTDFTLKISRVEAEDVGVYYCLQVTHVPFTFGQGTKLEIKR | binds

What follows are binders tested against EphA10 fused with human Fc (human) (UniProt Q5JZY3) (assay: ELISA, EphA10-Fc coated, anti-human kappa HRP).

Row | Binder | binding
3 | EphA10-specific humanized antibody 1-1 (antibody, V domains shown, Expressed in Expi293F cells in IgG form; detected with anti-human kappa chain; also called IMGT 1-1) VH: QVTLKESGPTLVKPTQTLTLTCTFSGFSLSTSGMGVGWIRQPPGKALEWLAHIWWDDVKRYNPALKSRLTITKDTSKNQVVLTMTNMDPVDTATYYCARTSFPAGVDYWGQGTLVTVSS VL: DVVMTQSPLSLPVTLGQPASISCRSSQSLQNSNGNTCLNWFQQRPGQSPRRLIYRVSNRFSGVPDRFSGSGSGTDFTLKISRVEAEDVGVYYCLQVTHVPFTFGQGTKLEIKR | binds
4 | EphA10-specific humanized antibody 1-2 (antibody, V domains shown, Expressed in Expi293F cells in IgG form; detected with anti-human kappa chain; also called IMGT 1-2) VH: QVTLKESGPTLVKPTQTLTLTCTFSGFSLSTSGMGVGWIRQPPGKALEWLAHIWWDDVKRYNPALKSRLTITKDTSKNQVVLTMTNMDPVDTATYYCARTSFPAGVDYWGQGTLVTVSS VL: DIVMTQTPLSLSVTPGQPASISCRSSQSLQNSNGNTCLNWYLQKPGQSPQLLIYRVSNRFSGVPDRFSGSGSGTDFTLKISRVEAEDVGVYYCLQVTHVPFTFGQGTKLEIKR | binds

Each binder was assayed against EphA10 (ELISA antigen, construct not stated) (UniProt Q5JZY3) (assay: ELISA, IgG form).

Row | Binder | binding
5 | antibody A.3 (antibody, V domains shown) VH: QVTLKESGPTLVKPTQTLTLTCTFSGFSLSTRGMGVGWIRQPPGKALEWLAHIRWDDVKRYNPALKSRLTITKDTSKNQVVLTMTNMDPVDTATYYCARTSFPAGVDYWGQGTLVTVSS VL: DVVMTQSPLSLPVTLGQPASISCRSSQSLQNSNGNTCLNWFQQRPGQSPRRLIYRVSSRFSGVPDRFSGSGSGTDFTLKISRVEAEDVGVYYCLQVTHVPFTFGQGTKLEIKR | binds
6 | antibody A.7 (antibody, V domains shown, also called A7 antibody) VH: QVTLKESGPTLVKPTQTLTLTCTFSGFSLSTSGMGVGWIRQPPGKALEWLAHIWWDDVKRYNPALKSRLTITKDTSKNQVVLTMTNMDPVDTATYYCARTSFPAGVDYWGQGTLVTVSS VL: DVVMTQSPLSLPVTLGQPASISCRSSQSLQNSNGNTYLNWFQQRPGQSPRRLIYRVSNRFSGVPDRFSGSGSGTDFTLKISRVEAEDVGVYYCLQGTHVPFTFGQGTKLEIKR | binds
7 | antibody 2-W (antibody, V domains shown, 1-2 with the free light chain CDR cysteine replaced by tryptophan; IgG form; also called 2W antibody; W2) VH: QVTLKESGPTLVKPTQTLTLTCTFSGFSLSTSGMGVGWIRQPPGKALEWLAHIWWDDVKRYNPALKSRLTITKDTSKNQVVLTMTNMDPVDTATYYCARTSFPAGVDYWGQGTLVTVSS VL: DIVMTQTPLSLSVTPGQPASISCRSSQSLQNSNGNTWLNWYLQKPGQSPQLLIYRVSNRFSGVPDRFSGSGSGTDFTLKISRVEAEDVGVYYCLQVTHVPFTFGQGTKLEIKR | binds
8 | antibody A.8 (antibody, V domains shown) VH: QVTLKESGPTLVKPTQTLTLTCTFSGFSLSTSGMGVGWIRQPPGKALEWLAHIWWDDVKRYNPALKSRLTITKDTSKNQVVLTMTNMDPVDTATYYCARTSFPAGVDYWGQGTLVTVSS VL: AVVMTQSPLSLPVTLGQPASISCRSSQSLQNSNGNTYLNWFQQRPGQSPRRLIYRVSNRFSGVPDRFSGSGSGTDFTLKISRVEAEDVGVYYCLQGTHVPFTFGQGTKLEIKR | binds
9 | antibody B.3 (antibody, V domains shown) VH: QVTLKESGPTLVKPTQTLTLTCTFSGFSLSTSSMGVGWIRQPPGKALEWLAHIRWDDVKRYNPALKSRLTITKDTSKNQVVLTMTNMDPVDTATYYCARTSFPAGVDYWGQGTLVTVSS VL: DVVMTQSPLSLPVTLGQPASISCRSSQSLQNSNGNTCLNWFQQRPGQNPRRLIYRVSNRFSGVPDRFSGSDSGTDYTLKISRVEAEDVGVYYCLQVTHVPFTFGQGTKLEIKR | binds
10 | antibody 2.1 (antibody, V domains shown) VH: QVTLKESGPTLVKPTQTITLTCTFSGFSLSTSGMGVGWIRQPPGKALEWLAHIWWDDVKRYNPALKSRLTITKDTSKNQVVLTMTNMDPVDTATYYCARTSFPAGVDYWGQGTLVTVSS VL: DIAMTQTPMSLSVTPGQPASISCRSSQSLQNSNGNTNLNWYLQKPGQSPQLLIYRVSNRFSGVPDRFSGSGSGTDFTLKISRVEAEDVGVYYCLQVTHVPFTFGQGTKLEIKR | binds
11 | antibody 2.3 (antibody, V domains shown) VH: QVTLKESGPTLVKPTQTLTLTCTFSGFSLSTSGMGVGWIRQPPGKALEWLAHIWWDDVKRYNPALKSRLTITKDTSKNQVVLTMTNMDPVDTATYYCARTSFPAGVDYWGQGTLVTVSS VL: DIVMTQTPLSLSVTPGQPASISCRSSQSLQNSNGNTRLNWYLQKPGQSPQLLIYRVSNRFSGVPDRFSGSGSGTDFTLKISRVEAEDVGVYYCLQETHVPFTFGQGTKLEIKR | binds
12 | antibody 1-N (antibody, V domains shown) VH: QVTLKESGPTLVKPTQTLTLTCTFSGFSLSTSGMGVGWIRQPPGKALEWLAHIWWDDVKRYNPALKSRLTITKDTSKNQVVLTMTNMDPVDTATYYCARTSFPAGVDYWGQGTLVTVSS VL: DVVMTQSPLSLPVTLGQPASISCRSSQSLQNSNGNTNLNWFQQRPGQSPRRLIYRVSNRFSGVPDRFSGSGSGTDFTLKISRVEAEDVGVYYCLQVTHVPFTFGQGTKLEIKR | binds
13 | antibody 1-R (antibody, V domains shown) VH: QVTLKESGPTLVKPTQTLTLTCTFSGFSLSTSGMGVGWIRQPPGKALEWLAHIWWDDVKRYNPALKSRLTITKDTSKNQVVLTMTNMDPVDTATYYCARTSFPAGVDYWGQGTLVTVSS VL: DVVMTQSPLSLPVTLGQPASISCRSSQSLQNSNGNTRLNWFQQRPGQSPRRLIYRVSNRFSGVPDRFSGSGSGTDFTLKISRVEAEDVGVYYCLQVTHVPFTFGQGTKLEIKR | binds
14 | antibody 1-W (antibody, V domains shown) VH: QVTLKESGPTLVKPTQTLTLTCTFSGFSLSTSGMGVGWIRQPPGKALEWLAHIWWDDVKRYNPALKSRLTITKDTSKNQVVLTMTNMDPVDTATYYCARTSFPAGVDYWGQGTLVTVSS VL: DVVMTQSPLSLPVTLGQPASISCRSSQSLQNSNGNTWLNWFQQRPGQSPRRLIYRVSNRFSGVPDRFSGSGSGTDFTLKISRVEAEDVGVYYCLQVTHVPFTFGQGTKLEIKR | binds
15 | antibody 1-Y (antibody, V domains shown) VH: QVTLKESGPTLVKPTQTLTLTCTFSGFSLSTSGMGVGWIRQPPGKALEWLAHIWWDDVKRYNPALKSRLTITKDTSKNQVVLTMTNMDPVDTATYYCARTSFPAGVDYWGQGTLVTVSS VL: DVVMTQSPLSLPVTLGQPASISCRSSQSLQNSNGNTYLNWFQQRPGQSPRRLIYRVSNRFSGVPDRFSGSGSGTDFTLKISRVEAEDVGVYYCLQVTHVPFTFGQGTKLEIKR | binds
16 | antibody 2-N (antibody, V domains shown) VH: QVTLKESGPTLVKPTQTLTLTCTFSGFSLSTSGMGVGWIRQPPGKALEWLAHIWWDDVKRYNPALKSRLTITKDTSKNQVVLTMTNMDPVDTATYYCARTSFPAGVDYWGQGTLVTVSS VL: DIVMTQTPLSLSVTPGQPASISCRSSQSLQNSNGNTNLNWYLQKPGQSPQLLIYRVSNRFSGVPDRFSGSGSGTDFTLKISRVEAEDVGVYYCLQVTHVPFTFGQGTKLEIKR | binds
17 | antibody 2-R (antibody, V domains shown) VH: QVTLKESGPTLVKPTQTLTLTCTFSGFSLSTSGMGVGWIRQPPGKALEWLAHIWWDDVKRYNPALKSRLTITKDTSKNQVVLTMTNMDPVDTATYYCARTSFPAGVDYWGQGTLVTVSS VL: DIVMTQTPLSLSVTPGQPASISCRSSQSLQNSNGNTRLNWYLQKPGQSPQLLIYRVSNRFSGVPDRFSGSGSGTDFTLKISRVEAEDVGVYYCLQVTHVPFTFGQGTKLEIKR | binds
18 | antibody 2-Y (antibody, V domains shown) VH: QVTLKESGPTLVKPTQTLTLTCTFSGFSLSTSGMGVGWIRQPPGKALEWLAHIWWDDVKRYNPALKSRLTITKDTSKNQVVLTMTNMDPVDTATYYCARTSFPAGVDYWGQGTLVTVSS VL: DIVMTQTPLSLSVTPGQPASISCRSSQSLQNSNGNTYLNWYLQKPGQSPQLLIYRVSNRFSGVPDRFSGSGSGTDFTLKISRVEAEDVGVYYCLQVTHVPFTFGQGTKLEIKR | binds

Each binder was assayed against EphA10-His monomer antigen protein (human) (UniProt Q5JZY3) (assay: BLI (Octet R8), antibody on Protein A biosensor, EphA10-His monomer as analyte).

Row | Binder | binding
19 | antibody A.7 (antibody, V domains shown, also called A7 antibody) VH: QVTLKESGPTLVKPTQTLTLTCTFSGFSLSTSGMGVGWIRQPPGKALEWLAHIWWDDVKRYNPALKSRLTITKDTSKNQVVLTMTNMDPVDTATYYCARTSFPAGVDYWGQGTLVTVSS VL: DVVMTQSPLSLPVTLGQPASISCRSSQSLQNSNGNTYLNWFQQRPGQSPRRLIYRVSNRFSGVPDRFSGSGSGTDFTLKISRVEAEDVGVYYCLQGTHVPFTFGQGTKLEIKR | binds
20 | antibody 2-W (antibody, V domains shown, 1-2 with the free light chain CDR cysteine replaced by tryptophan; IgG form; also called 2W antibody; W2) VH: QVTLKESGPTLVKPTQTLTLTCTFSGFSLSTSGMGVGWIRQPPGKALEWLAHIWWDDVKRYNPALKSRLTITKDTSKNQVVLTMTNMDPVDTATYYCARTSFPAGVDYWGQGTLVTVSS VL: DIVMTQTPLSLSVTPGQPASISCRSSQSLQNSNGNTWLNWYLQKPGQSPQLLIYRVSNRFSGVPDRFSGSGSGTDFTLKISRVEAEDVGVYYCLQVTHVPFTFGQGTKLEIKR | binds
